Source: PubChem BioAssay AID1688 (National Center for Advancing Translational Sciences (NCATS), 2009)
Among all 220,000 compounds or so, about 2,400 (1.1%) were called active. Inconclusive results, whose numbers are uncertain, are shown with a selection of clear calls. Calls follow the shape of the dose curve; as a rule, active = well fitted inhibition curve with a large enough effect; inconclusive = small, poorly fitted or top-dose-only effect, or effect the other way; inactive = no such curve, though single readings can be large or run the other way. Potencies of inconclusive entries are doubtful fits and often do not repeat.

test: qHTS Multiplex Assay to Identify Dual Action Probes in a Cell Model of Huntington: Aggregate Formation (GFP); conditions: PC12 HttQ103-GFP aggregates, Acumen cytometry, 40 h; activity change, negative = inhibition: at 46.1 µM (top of the series) unless noted; also: nearly all actives have a fitted effect of over 60% in size
Outline: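 Compounds (qHTS titration) were added to PC12 cells expressing an ecdysone-driven HTT exon 1 Q103–GFP fusion after induction with 100 nM tebufenozide. Aggregate formation was measured as GFP objects in cell lysates.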
% is scaled to controls: 0 for no effect and ±100 for the full control effect; potency is read from the fitted curve at half-maximal effect.

Row | Compound | Potency | activity change, negative = inhibition
1 | CC(C)c1ccc(NC(=S)Nc2ccc3cn[nH]c3c2)cc1 | inactive | –
2 | O=C(CNC(=O)c1ccccc1O)N/N=C/c1cc(Br)ccc1OC(=O)/C=C/c1ccco1 | active: 2.51 µM | –
3 | O=C(c1cccnc1)N1CCc2ccccc21 | inactive | –
4 | COc1cc(C(=O)NC(=S)NNC(=O)c2cnccn2)cc(OC)c1OC | inconclusive: 1.41 µM [inhibitor, full curve] | –
5 | O=C1COc2ccc(-c3csc(NCC4CCCO4)n3)cc2N1 (stereo unspecified) | inactive | –
6 | CCOP(=O)(OCC)C(NC(=O)c1cccs1)C(F)(F)F (stereo unspecified) | inconclusive: 11.2 µM [activator, single point] | –
7 | Cc1onc(-c2ccccc2)c1C(=O)N/N=C/c1ccc([N+](=O)[O-])s1 | inactive | –
8 | Cn1c(=O)cc(SCC(=O)NCCC2=CCCCC2)c2ccccc21 | inactive | –
9 | C=CCOc1cccc(C2C(C(=O)c3ccc(C)o3)=C(O)C(=O)N2Cc2ccncc2)c1 (stereo unspecified) | inconclusive: 25.1 µM [inhibitor, single point] | –
10 | CCCCOC(=O)c1ccc(NC(=O)Nc2ccc(OC)c(OC)c2)cc1 | inconclusive: 2.51 µM [inhibitor, partial curve, poor fit] | –
11 | Cc1ccc(CNC(=O)CCS(=O)(=O)c2ccc(Br)cc2)cc1 | inactive | –
12 | Cc1nnc(SC2CC(=O)N(c3ccccc3)C2=O)s1 (stereo unspecified) | inconclusive: 35.5 µM [inhibitor, single point] | –
13 | Fc1ccccc1N1CCN(Cc2cnc(Cl)s2)CC1 | inactive | –
14 | CC(=O)c1cc(F)ccc1OCC(=O)N1CCN(c2ccc(F)cc2)CC1 | inconclusive: 3.98 µM [activator, single point] | –
15 | CCOC(=O)c1c(NC(=O)CSc2nnc(C)s2)sc2c1CCCCC2 | inconclusive: 31.6 µM [activator, single point] | –
16 | CNc1cccc2c1C(=O)c1ccccc1C2=O | inactive | –
17 | O=C(N/N=C/c1ccc(N2CCCCC2)o1)c1ccccc1[N+](=O)[O-] | inconclusive: 35.5 µM [inhibitor, single point] | –
18 | C/C(=N/Nc1ncc(C(F)(F)F)cc1Cl)c1ccncc1 | inconclusive: 2.51 µM [activator, single point] | –
19 | Cc1nnc(NC(=O)c2sc3nc(-c4cccs4)cc(C(F)(F)F)c3c2N)s1 | inactive | –
20 | C=CCNC(=O)c1ccc(Sc2ccccc2)c([N+](=O)[O-])c1 | inconclusive: 35.5 µM [inhibitor, single point] | –
21 | O=C(NCc1ccco1)c1ccc2nc3sc4c(c3c(=O)n2c1)CCCC4 | inconclusive: 10 µM [activator, partial curve] | –
22 | OCc1cnc(SCc2ccccc2)n1Cc1ccccc1 | inconclusive: 15.8 µM [inhibitor, single point] | –
23 | CCn1cc(C(=O)N2CC=C(c3ccccc3)CC2)c(=O)c2ccc(C)nc21 | inconclusive: 25.1 µM [inhibitor, single point] | –
24 | Cc1nc2cc(N=NC3=C(O)CCCC3=O)ccc2s1 | inconclusive: 6.31 µM [activator, partial curve] | –

Row | Compound | Potency | activity change, negative = inhibition
25 | CCOc1ccccc1-n1nnnc1SCC(=O)O | – | inactive: -1.77% [at 9.22 µM]
26 | O=C(/C=C/c1ccncc1)c1ccc(NC(=O)c2ccccc2F)cc1 | inconclusive: 35.5 µM [inhibitor, single point] | –
27 | CC(=O)c1cn(CC(=O)Nc2ccccc2C)c2ccccc12 | inconclusive: 2.24 µM [inhibitor, full curve, poor fit] | –
28 | O=C(Nc1nc2ccccc2s1)C1CC(=O)N(c2ccc(Br)cc2)C1 (stereo unspecified) | inconclusive: 25.1 µM [inhibitor, single point] | –
29 | O=C(Nc1nc(-c2ccccn2)cs1)C1CC(=O)N(c2ccc3c(c2)OCCO3)C1 (stereo unspecified) | inconclusive: 35.5 µM [inhibitor, single point] | –
30 | CCCCCC(C)NC(=S)NC(=O)c1cc(S(=O)(=O)N2CCOCC2)ccc1C (stereo unspecified) | inconclusive: 35.5 µM [inhibitor, single point] | –
31 | O=C(O)c1ccccc1C(=O)Nc1ccc(-c2csc(-c3ccccc3)n2)cc1 | inactive | –
32 | S=C(c1ccc(-c2cccc(Cl)c2)o1)N1CCOCC1 | inactive | –
33 | O=C(Nc1nc(-c2ccccn2)cs1)c1cc2ccccc2o1 | inconclusive: 10 µM [inhibitor, partial curve] | –
34 | COc1ccc(O)c(/C=N/NC(=S)Nc2cccc(S(=O)(=O)N(C)C)c2)c1 | inconclusive: 0.891 µM [inhibitor, single point] | –
35 | O=S(=O)(NCCc1ccc2c(c1)OCCO2)c1cccs1 | inactive | –
36 | COc1ccc(COC(=O)N/C=C/c2ccco2)cc1 | inconclusive: 3.98 µM [activator, full curve, poor fit] | –
37 | COP(=O)(OC)c1nc(-c2cccc3ccccc23)oc1NCCc1ccccc1 | inactive | –
38 | CO/N=C/C1CCN(c2ncc(C(F)(F)F)cc2Cl)C1=O (stereo unspecified) | inconclusive: 11.2 µM [activator, partial curve, poor fit] | –
39 | C=CCc1c(C)nc(C)nc1N/N=C/c1ccccc1O | inconclusive: 10 µM [inhibitor, partial curve] | –
40 | Cc1c(C(=O)NCCC2=CCCCC2)oc2ccc(S(=O)(=O)N3CCOCC3)cc12 | inconclusive: 35.5 µM [inhibitor, single point] | –
41 | Cc1onc(-c2c(F)cccc2Cl)c1C(=O)NC1C(=O)N2C1SC(C)(C)C2C(=O)O (stereo unspecified) | inactive | –
42 | O=C(CN1CCCC1)N1CCCc2c1c(=O)oc1ccc(OCc3ccccc3)cc21 | inconclusive: 5.62 µM [inhibitor, partial curve] | –
43 | Cc1ccc(-c2nn3c(-c4ccco4)nnc3c3ccccc23)cc1S(=O)(=O)NCC1CCCO1 (stereo unspecified) | inconclusive: 17.8 µM [activator, single point] | –
44 | COc1cc(OC)cc(C(=O)NC(=S)N2CCN(c3ccc(C(F)(F)F)cc3[N+](=O)[O-])CC2)c1 | inconclusive: 11.2 µM [inhibitor, partial curve] | –
45 | CCn1c(CNc2nc(-c3ccccc3)cs2)nnc1SCC(=O)NCc1ccco1 | inactive | –
46 | CCN(CC)C(=O)c1cc(-c2ccccc2OC)on1 | inactive | –
47 | COC(=O)c1sc(NC(=O)c2c(F)cccc2F)c(C#N)c1C | – | inactive: -1.1% [at 9.22 µM]
48 | CN(C)/C=C1\N=C(c2ccc3c(c2)OCO3)OC1=O | inconclusive: 2.82 µM [inhibitor, single point] | –

Row | Compound | Potency | activity change, negative = inhibition
49 | C=CCNc1ncnc2c1[nH]c1ccc(Cl)cc12 | inconclusive: 20 µM [inhibitor, single point] | –
50 | CC(OC(=O)/C=C/c1ccco1)C(=O)Nc1cccc([N+](=O)[O-])c1 (stereo unspecified) | inactive | –
51 | CSc1ccc(S(=O)(=O)Nc2ccc3c(c2)OCCO3)cc1 | inactive | –
52 | O=C(O)CC/C(=N/NC(=O)c1cn(-c2ccccc2)nc1-c1ccccc1)C(=O)O | inactive | –
53 | COc1cccc(-c2csc(N3CCN(Cc4ccccc4)CC3)n2)c1 | inactive | –
54 | Clc1ccc(C2=Nn3c(nnc3-c3n[nH]c4c3CCC4)SC2)cc1 | inconclusive: 4.47 µM [activator, partial curve] | –
55 | O=C(C1=C[C@@H](c2csc3ccccc23)C[C@@H](OCc2ccc(CO)cc2)O1)N1CCN(Cc2ccccc2)CC1 | – | inactive: 16.9% [at 9.22 µM]
56 | CS(=O)(=O)c1nc(-c2ccccc2)cc(-c2ccccc2)c1C#N | inconclusive: 31.6 µM [inhibitor, single point] | –
57 | O=C1C=CC(=O)N1N(c1ccccc1)c1ccccc1 | inconclusive: 35.5 µM [activator, single point] | –
58 | COc1ccccc1-c1cc(-c2cc(Cl)ccc2O)n[nH]1 | inactive | –
59 | CCN(C(=O)Cc1cccs1)c1nnc(-c2cccnc2)s1 | inconclusive: 2 µM [activator, partial curve] | –
60 | CC(C)NC(=O)c1onc(CSc2cccc(Cl)c2)c1C(=O)O | inactive | –
61 | O=S(=O)(Nc1cccc(-c2cn3cccnc3n2)c1)c1ccc(-c2ccccc2)cc1 | inconclusive: 25.1 µM [inhibitor, single point] | –
62 | NC(=S)NNC(=O)C12CC3CC(CC(C3)C1)C2 | inconclusive: 11.2 µM [inhibitor, partial curve] | –
63 | CCCC(=Nc1ccccc1OC)C1=C(O)CC(c2ccccc2)CC1=O (stereo unspecified) | inconclusive: 35.5 µM [inhibitor, single point] | –
64 | O=C(CCCCCCN1C(=O)c2ccccc2C1=O)N1CCC(c2ccccc2)C1 (stereo unspecified) | inconclusive: 35.5 µM [inhibitor, single point] | –
65 | COc1ccc(-n2c(COc3cccc4ccccc34)nnc2SCC#N)cc1 | inconclusive: 12.6 µM [inhibitor, partial curve] | –
66 | Cc1nc(NC(=O)c2ccccc2)sc1-c1csc(Nc2cccc(F)c2)n1 | inconclusive: 35.5 µM [inhibitor, single point] | –
67 | CC1(C)CC(CCN(Cc2ccccc2)C(=O)c2ccco2)(c2ccccc2)CCO1 (stereo unspecified) | inconclusive: 12.6 µM [inhibitor, single point] | –
68 | O=C(CNC(=O)c1cccc(Br)c1)N/N=C/c1cc(Br)cc(Br)c1O | inconclusive: 15.8 µM [inhibitor, single point] | –
69 | Cc1cc(N2CCCC2=O)cc(C)c1S(=O)(=O)NCCOc1ccc(C(C)(C)C)cc1 | inconclusive: 7.08 µM [inhibitor, partial curve] | –
70 | Cc1cccc(-c2noc(CN(C(=O)c3c(-c4ccccc4Cl)noc3C)C(C)C)n2)c1 | inconclusive: 28.2 µM [inhibitor, single point] | –
71 | CCSC1=N/C(=C\c2ccc(-c3ccccc3[N+](=O)[O-])o2)C(=O)S1 | inactive | –

Record cards (already shown). Order of values: Potency	activity change, negative = inhibition
Cc1nnc(SC2CC(=O)N(c3ccccc3)C2=O)s1 (stereo unspecified) in the list: inconclusive: 35.5 µM [inhibitor, single point]	–
C=CCOc1cccc(C2C(C(=O)c3ccc(C)o3)=C(O)C(=O)N2Cc2ccncc2)c1 (stereo unspecified) in the list: inconclusive: 25.1 µM [inhibitor, single point]	–
